Measurements from the supplement of paper PMC12823440, “Inhibitors supercharge kinase turnover through native proteolytic circuits” (Nature, 2025).
Some of the results follow. Hit calls seldom repeat between salt and free forms of one compound.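 Kinases, fused to nanoluciferase, were expressed in K562 cells; luminescence was measured every 4 h from 2 to 18 h as percent of control (DMSO = 100%, positive control = 0%). A time point is decreased if signal falls significantly (2 sigma). Hits were called by the authors by a rule that is not shown; the count of time points alone does not decide it.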

Sequences of proteins named here, by UniProt entry; tags and fusion partners are left off. A change or cut given only in a name is not applied to a line headed by its entry.
UniProt Q00535, whole entry, looked up: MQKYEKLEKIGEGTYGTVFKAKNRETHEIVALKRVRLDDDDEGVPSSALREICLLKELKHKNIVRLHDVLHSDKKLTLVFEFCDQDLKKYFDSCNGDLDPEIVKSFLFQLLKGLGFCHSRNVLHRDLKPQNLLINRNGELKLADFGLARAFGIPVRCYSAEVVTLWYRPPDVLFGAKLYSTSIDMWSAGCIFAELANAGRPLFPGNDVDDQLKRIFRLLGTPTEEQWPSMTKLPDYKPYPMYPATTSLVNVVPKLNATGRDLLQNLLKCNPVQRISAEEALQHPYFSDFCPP
UniProt Q9Y616: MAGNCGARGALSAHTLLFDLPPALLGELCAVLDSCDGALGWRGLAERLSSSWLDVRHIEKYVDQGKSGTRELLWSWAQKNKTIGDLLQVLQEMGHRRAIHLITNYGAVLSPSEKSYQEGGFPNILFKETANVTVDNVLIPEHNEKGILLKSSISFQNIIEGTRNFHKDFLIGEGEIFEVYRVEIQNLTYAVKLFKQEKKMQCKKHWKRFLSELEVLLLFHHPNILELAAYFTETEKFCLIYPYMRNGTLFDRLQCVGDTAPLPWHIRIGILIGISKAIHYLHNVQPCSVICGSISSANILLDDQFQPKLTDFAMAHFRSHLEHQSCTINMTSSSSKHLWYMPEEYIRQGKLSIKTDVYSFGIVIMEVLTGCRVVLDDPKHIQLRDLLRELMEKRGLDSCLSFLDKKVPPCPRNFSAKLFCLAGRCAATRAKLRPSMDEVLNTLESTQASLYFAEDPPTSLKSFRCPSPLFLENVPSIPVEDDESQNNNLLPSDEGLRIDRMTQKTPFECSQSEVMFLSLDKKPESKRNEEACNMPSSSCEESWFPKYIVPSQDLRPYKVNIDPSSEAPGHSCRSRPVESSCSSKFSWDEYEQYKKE
UniProt P06241, whole entry, looked up: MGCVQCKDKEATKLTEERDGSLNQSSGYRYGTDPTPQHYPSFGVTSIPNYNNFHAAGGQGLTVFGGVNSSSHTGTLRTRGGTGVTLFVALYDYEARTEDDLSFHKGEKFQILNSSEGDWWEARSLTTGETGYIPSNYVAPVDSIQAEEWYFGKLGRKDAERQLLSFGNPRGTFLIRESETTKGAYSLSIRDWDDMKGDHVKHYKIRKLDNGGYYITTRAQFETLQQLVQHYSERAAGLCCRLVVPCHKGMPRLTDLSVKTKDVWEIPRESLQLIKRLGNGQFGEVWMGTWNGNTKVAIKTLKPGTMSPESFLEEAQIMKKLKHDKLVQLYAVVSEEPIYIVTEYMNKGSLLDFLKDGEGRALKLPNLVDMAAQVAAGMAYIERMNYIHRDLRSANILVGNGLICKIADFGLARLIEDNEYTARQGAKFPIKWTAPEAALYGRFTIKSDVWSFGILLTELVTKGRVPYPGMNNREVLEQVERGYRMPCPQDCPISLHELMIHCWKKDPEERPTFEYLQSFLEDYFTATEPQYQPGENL
UniProt P31749: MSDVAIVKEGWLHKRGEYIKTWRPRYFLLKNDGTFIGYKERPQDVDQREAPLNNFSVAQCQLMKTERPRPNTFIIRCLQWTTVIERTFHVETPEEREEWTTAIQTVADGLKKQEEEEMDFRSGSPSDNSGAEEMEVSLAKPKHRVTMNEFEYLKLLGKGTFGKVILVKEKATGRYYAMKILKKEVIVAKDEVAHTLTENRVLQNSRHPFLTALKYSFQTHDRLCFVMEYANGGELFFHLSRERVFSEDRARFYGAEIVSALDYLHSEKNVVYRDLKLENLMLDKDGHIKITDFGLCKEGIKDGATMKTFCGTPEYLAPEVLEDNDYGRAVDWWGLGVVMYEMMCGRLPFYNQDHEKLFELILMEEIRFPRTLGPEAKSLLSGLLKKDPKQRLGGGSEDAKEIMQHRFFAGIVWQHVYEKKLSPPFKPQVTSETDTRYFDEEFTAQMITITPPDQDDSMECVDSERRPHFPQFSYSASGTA
UniProt O14965: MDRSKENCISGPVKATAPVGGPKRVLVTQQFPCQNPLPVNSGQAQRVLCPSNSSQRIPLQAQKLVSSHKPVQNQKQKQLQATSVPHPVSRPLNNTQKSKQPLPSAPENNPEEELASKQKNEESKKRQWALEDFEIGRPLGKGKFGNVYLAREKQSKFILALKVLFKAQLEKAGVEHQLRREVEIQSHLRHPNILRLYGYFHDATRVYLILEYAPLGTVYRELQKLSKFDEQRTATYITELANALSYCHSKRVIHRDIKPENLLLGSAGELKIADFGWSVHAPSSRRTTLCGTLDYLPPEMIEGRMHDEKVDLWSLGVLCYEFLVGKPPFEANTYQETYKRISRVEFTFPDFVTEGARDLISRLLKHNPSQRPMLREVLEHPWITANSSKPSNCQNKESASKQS
UniProt O96013: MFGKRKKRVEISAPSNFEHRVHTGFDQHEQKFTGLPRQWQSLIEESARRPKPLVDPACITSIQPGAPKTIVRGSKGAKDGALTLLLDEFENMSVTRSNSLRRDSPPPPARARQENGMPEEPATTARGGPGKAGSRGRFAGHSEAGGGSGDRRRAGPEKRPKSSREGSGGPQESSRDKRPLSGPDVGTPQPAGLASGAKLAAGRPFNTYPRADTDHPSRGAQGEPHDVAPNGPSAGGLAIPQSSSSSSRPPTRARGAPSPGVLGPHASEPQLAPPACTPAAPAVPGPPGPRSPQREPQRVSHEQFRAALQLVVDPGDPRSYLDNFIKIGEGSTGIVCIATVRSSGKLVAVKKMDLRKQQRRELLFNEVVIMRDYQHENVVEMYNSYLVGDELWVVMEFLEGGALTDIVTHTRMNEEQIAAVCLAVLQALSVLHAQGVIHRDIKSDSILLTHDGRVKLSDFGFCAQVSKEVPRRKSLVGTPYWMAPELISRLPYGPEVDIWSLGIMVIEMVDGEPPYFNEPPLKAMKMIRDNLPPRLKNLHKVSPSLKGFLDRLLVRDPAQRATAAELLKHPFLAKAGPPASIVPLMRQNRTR
UniProt Q96KB5: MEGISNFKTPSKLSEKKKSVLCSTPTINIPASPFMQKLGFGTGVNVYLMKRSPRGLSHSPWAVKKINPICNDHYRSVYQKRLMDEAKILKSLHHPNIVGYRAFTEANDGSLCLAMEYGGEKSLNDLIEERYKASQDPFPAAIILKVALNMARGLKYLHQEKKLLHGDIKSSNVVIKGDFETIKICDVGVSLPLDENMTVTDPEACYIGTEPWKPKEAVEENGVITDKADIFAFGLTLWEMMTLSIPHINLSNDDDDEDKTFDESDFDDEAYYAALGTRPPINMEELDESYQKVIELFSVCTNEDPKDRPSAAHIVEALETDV
UniProt Q15118, whole entry, looked up: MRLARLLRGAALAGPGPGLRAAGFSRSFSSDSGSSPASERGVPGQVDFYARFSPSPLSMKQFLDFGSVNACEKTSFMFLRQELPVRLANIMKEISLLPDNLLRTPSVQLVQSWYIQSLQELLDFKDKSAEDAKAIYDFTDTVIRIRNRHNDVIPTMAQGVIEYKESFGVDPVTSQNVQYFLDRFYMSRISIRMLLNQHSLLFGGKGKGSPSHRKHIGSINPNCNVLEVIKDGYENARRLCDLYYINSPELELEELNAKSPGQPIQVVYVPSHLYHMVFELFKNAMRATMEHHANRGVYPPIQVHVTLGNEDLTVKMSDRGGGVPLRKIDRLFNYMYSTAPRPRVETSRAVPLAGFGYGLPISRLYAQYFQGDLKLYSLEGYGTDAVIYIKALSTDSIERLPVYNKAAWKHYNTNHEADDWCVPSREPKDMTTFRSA
UniProt P42680: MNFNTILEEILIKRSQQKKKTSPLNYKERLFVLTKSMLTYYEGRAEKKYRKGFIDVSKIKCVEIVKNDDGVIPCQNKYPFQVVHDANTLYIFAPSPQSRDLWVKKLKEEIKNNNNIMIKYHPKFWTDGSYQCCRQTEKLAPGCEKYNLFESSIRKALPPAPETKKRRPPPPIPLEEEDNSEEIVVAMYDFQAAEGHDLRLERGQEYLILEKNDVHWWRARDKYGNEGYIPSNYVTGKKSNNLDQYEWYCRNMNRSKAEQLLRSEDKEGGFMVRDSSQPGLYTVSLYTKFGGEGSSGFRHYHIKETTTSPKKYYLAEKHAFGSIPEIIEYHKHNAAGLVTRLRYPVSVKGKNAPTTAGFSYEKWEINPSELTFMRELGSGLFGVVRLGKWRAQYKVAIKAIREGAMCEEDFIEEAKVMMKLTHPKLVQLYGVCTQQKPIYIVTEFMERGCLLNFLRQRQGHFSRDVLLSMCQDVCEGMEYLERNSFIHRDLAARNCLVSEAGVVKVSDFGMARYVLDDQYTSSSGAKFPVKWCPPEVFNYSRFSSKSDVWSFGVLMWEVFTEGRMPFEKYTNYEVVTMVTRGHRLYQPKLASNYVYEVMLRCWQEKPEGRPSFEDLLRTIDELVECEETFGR
UniProt P10398: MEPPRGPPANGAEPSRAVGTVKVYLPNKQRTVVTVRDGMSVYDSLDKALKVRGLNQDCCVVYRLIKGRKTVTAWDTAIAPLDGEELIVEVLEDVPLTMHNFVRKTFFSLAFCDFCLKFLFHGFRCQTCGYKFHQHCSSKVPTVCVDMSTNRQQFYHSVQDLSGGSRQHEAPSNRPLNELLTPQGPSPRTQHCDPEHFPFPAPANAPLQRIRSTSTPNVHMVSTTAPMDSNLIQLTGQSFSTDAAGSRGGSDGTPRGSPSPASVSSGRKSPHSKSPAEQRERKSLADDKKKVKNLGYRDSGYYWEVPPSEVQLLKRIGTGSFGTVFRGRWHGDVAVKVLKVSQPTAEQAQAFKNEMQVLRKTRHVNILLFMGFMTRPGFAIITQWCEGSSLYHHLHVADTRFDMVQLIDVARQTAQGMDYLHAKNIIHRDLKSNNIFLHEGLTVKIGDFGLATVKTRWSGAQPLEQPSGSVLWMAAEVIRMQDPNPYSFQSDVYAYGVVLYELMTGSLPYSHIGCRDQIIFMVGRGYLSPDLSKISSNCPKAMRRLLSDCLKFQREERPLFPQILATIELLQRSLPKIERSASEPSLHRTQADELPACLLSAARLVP
UniProt P21802, whole entry, looked up: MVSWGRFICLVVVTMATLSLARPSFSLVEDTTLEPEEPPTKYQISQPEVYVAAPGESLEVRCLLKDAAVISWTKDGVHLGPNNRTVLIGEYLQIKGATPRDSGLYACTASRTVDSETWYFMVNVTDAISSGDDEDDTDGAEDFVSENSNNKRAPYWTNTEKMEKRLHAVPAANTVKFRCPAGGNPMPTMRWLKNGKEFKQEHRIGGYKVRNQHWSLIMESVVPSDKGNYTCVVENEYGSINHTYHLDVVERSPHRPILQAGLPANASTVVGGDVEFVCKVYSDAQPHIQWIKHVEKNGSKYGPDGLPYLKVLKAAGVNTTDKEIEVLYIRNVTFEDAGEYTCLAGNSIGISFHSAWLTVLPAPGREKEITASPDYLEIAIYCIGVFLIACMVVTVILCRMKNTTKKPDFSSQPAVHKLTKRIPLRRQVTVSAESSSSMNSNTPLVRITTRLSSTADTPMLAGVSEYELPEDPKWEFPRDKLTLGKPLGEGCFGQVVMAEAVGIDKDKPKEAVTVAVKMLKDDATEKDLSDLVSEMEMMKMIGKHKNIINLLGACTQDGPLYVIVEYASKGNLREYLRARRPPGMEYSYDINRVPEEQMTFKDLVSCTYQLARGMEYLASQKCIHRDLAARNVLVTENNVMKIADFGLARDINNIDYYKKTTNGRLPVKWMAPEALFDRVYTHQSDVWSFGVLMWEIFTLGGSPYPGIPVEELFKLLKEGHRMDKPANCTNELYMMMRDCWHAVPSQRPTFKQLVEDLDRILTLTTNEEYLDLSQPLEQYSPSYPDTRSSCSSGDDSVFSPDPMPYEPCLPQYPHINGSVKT
UniProt Q92630: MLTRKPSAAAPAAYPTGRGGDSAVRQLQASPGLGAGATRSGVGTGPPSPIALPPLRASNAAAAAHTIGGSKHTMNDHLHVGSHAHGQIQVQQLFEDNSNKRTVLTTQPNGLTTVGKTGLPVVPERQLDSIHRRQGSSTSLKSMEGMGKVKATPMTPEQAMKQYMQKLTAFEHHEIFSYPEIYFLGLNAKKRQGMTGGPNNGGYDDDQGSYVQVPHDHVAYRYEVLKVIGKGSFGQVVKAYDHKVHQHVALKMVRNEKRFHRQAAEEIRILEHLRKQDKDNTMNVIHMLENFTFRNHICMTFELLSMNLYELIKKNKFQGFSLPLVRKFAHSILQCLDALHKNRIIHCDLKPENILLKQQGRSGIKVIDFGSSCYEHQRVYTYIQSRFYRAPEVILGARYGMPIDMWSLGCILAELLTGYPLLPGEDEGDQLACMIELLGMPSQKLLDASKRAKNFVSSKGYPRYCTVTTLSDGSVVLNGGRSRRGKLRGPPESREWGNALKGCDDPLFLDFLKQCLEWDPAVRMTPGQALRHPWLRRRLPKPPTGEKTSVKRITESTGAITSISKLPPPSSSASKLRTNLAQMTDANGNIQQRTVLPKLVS

Legend:
Experiment in all cases: number of time points (of 5) at which kinase-Nluc abundance scored as decreased, DMSO-normalised (count); higher = more persistent destabilization
Afatinib (dimaleate) = compound: CN(C)C/C=C/C(=O)Nc1cc2c(Nc3ccc(F)c(Cl)c3)ncnc2cc1O[C@H]1CCOC1 [Afatinib (dimaleate)]; conditions: 2.5 µM; K562; 2-18 h
Afatinib = compound: CN(C)C/C=C/C(=O)Nc1cc2c(Nc3ccc(F)c(Cl)c3)ncnc2cc1O[C@H]1CCOC1 [Afatinib]; conditions: 10 µM; K562; 2-18 h
[1] = compound: CN1CCCN(C(=O)c2cccc(-c3ccc(/C=C4/C(=O)Nc5ccc(Cl)cc54)o3)c2)CC1 [CX-6258 (hydrochloride hydrate)]; conditions: 2.5 µM; K562; 2-18 h
CX-6258 (hydrochloride) = compound: CN1CCCN(C(=O)c2cccc(-c3ccc(/C=C4/C(=O)Nc5ccc(Cl)cc54)o3)c2)CC1 [CX-6258 (hydrochloride)]; conditions: 2.5 µM; K562; 2-18 h
[2] = compound: CN1CCCN(C(=O)c2cccc(-c3ccc(/C=C4/C(=O)Nc5ccc(Cl)cc54)o3)c2)CC1; conditions: 2.5 µM; K562; 2-18 h
[3] = compound: CNC(=O)c1cc(Oc2ccc(NC(=O)Nc3ccc(Cl)c(C(F)(F)F)c3)c(F)c2)ccn1 [Regorafenib (monohydrate)]; conditions: 2.5 µM; K562; 2-18 h
Regorafenib = compound: CNC(=O)c1cc(Oc2ccc(NC(=O)Nc3ccc(Cl)c(C(F)(F)F)c3)c(F)c2)ccn1 [Regorafenib]; conditions: 2.5 µM; K562; 2-18 h
[4] = compound: CNC(=O)c1ccc(Nc2ncc(C(F)(F)F)c(NCc3nccnc3N(C)S(C)(=O)=O)n2)cc1 [Defactinib (hydrochloride)]; conditions: 10 µM; K562; 2-18 h
Defactinib = compound: CNC(=O)c1ccc(Nc2ncc(C(F)(F)F)c(NCc3nccnc3N(C)S(C)(=O)=O)n2)cc1 [Defactinib]; conditions: 10 µM; K562; 2-18 h
PND-1186 (hydrochloride) = compound: CNC(=O)c1ccccc1Nc1cc(Nc2ccc(N3CCOCC3)cc2OC)ncc1C(F)(F)F [PND-1186 (hydrochloride)]; conditions: 10 µM; K562; 2-18 h

Measured: number of time points

DYRK1B (UniProt Q9Y463)
2: Afatinib
0: all other assays above

NTRK2 (UniProt Q16620)
0: all assays above

PDGFRB (UniProt P09619)
4: Afatinib | [3] | Regorafenib
0: all other assays above

PIK4CA (UniProt P42356)
1: Afatinib
0: all other assays above

BRAF_V600E
2: Afatinib | Defactinib
1: [3] | [4]
0: all other assays above

SPHK1 (UniProt Q9NYA1)
2: Defactinib
3: Afatinib
1: CX-6258 (hydrochloride)
0: all other assays above

TYK2 (UniProt P29597)
1: [3]
4: Afatinib
0: all other assays above

RAF1_S257L (clone: RAF1_mut) (UniProt P04049)
3: Afatinib
0: all other assays above

CDK5 (UniProt Q00535)
0: all assays above

FGFR1 (UniProt P11362)
3: Afatinib
0: all other assays above

CSNK1D (UniProt P48730)
3: Afatinib | Defactinib
0: all other assays above

MAPK4 (UniProt P31152)
1: Afatinib
0: all other assays above

IRAK3 (UniProt Q9Y616)
3: Defactinib
0: all other assays above

CAMK2A (UniProt Q9UQM7)
0: all assays above

LCK (UniProt P06239)
0: all assays above

PRKCA (UniProt P17252)
0: all assays above

ERBB4_R711C (clone: ERBB4_mut) (UniProt Q15303)
4: Defactinib
3: Afatinib | [4]
0: all other assays above

INSRR (UniProt P14616)
1: Defactinib
3: Afatinib
0: all other assays above

CDK3 (UniProt Q00526)
0: all assays above

SRC (UniProt P12931)
0: all assays above

LMTK2 (UniProt Q8IWU2)
1: PND-1186 (hydrochloride)
3: [4]
0: all other assays above

AURKB (UniProt Q96GD4)
4: Afatinib
0: all other assays above

STK38 (UniProt Q15208)
2: Afatinib
0: all other assays above

RIPK1 (UniProt Q13546)
3: Afatinib
0: all other assays above

MAP2K1 (UniProt Q02750)
0: all assays above

CSK (UniProt P41240)
0: all assays above

RET (UniProt P07949)
2: Afatinib | Defactinib
0: all other assays above

ERBB3 (UniProt P21860)
3: Afatinib
0: all other assays above

PLK1 (UniProt P53350)
0: all assays above

MAP4K2 (UniProt Q12851)
0: all assays above

FGFR3 (UniProt P22607)
0: all assays above

PIK4CB (UniProt Q9UBF8)
1: Afatinib
0: all other assays above

ZAK (UniProt Q9NYL2)
2: Afatinib
0: all other assays above

BMX (UniProt P51813)
3: Afatinib | [3] | Regorafenib | Defactinib
0: all other assays above

STK24 (UniProt Q9Y6E0)
0: all assays above

MAPK1 (UniProt P28482)
0: all assays above

LYN (UniProt P07948)
3: Afatinib
0: all other assays above

FGR (UniProt P09769)
0: all assays above

RIPK2 (UniProt O43353)
3: Afatinib
0: all other assays above

BLK (UniProt P51451)
4: Afatinib
3: Defactinib
2: [1] | [4]
0: all other assays above

ULK3 (UniProt Q6PHR2)
3: Afatinib
0: all other assays above

MAP2K2 (UniProt P36507)
0: all assays above

BRAF (UniProt P15056)
1: Defactinib
3: Afatinib
0: all other assays above

CSF1R (UniProt P07333)
1: [3]
4: Afatinib
0: all other assays above

DDR1 (UniProt Q08345)
1: Afatinib | [1]
3: Defactinib
0: all other assays above

FYN (UniProt P06241)
3: [3]
4: Afatinib
0: all other assays above

PTK2 (UniProt Q05397)
1: Regorafenib
2: [3]
3: Afatinib | Defactinib
0: all other assays above

ALK (UniProt Q9UM73)
2: Afatinib | [4] | Defactinib
0: all other assays above

AKT1 (UniProt P31749)
0: all assays above

RPS6KA1 (UniProt Q15418)
0: all assays above

RIOK1 (UniProt Q9BRS2)
2: Afatinib
0: all other assays above

HER2 (UniProt P04626)
5: Afatinib (dimaleate) | Afatinib
1: Regorafenib
0: all other assays above

RET_M918T (clone: RET_mut) (UniProt P07949)
1: Afatinib
2: Regorafenib | Defactinib
0: all other assays above

LIMK2 (UniProt P53671)
2: Regorafenib
1: [1]
4: Afatinib
0: all other assays above

BTK (UniProt Q06187)
2: Afatinib
0: all other assays above

AURKA (UniProt O14965)
3: Regorafenib
4: Afatinib
1: [3]
0: all other assays above

MAPKAPK2 (UniProt P49137)
0: all assays above

NTRK3 (UniProt Q16288)
1: [1]
2: Defactinib
0: all other assays above

MKNK1 (UniProt Q9BUB5)
4: Afatinib
0: all other assays above

PAK4 (UniProt O96013)
0: all assays above

CHEK2 (UniProt O96017)
1: [3] | Regorafenib | [4]
0: all other assays above

FLT3 (UniProt P36888)
3: Afatinib
2: Defactinib
0: all other assays above

ROR2 (UniProt Q01974)
0: all assays above

AURKC (UniProt Q9UQB9)
0: all assays above

PBK (UniProt Q96KB5)
0: all assays above

CAMK2G (UniProt Q13555)
2: Regorafenib
0: all other assays above

EGFR_G719S (UniProt P00533)
1: Regorafenib
3: [3]
not listed: Afatinib (dimaleate) | Afatinib
0: all other assays above

PDK1 (UniProt Q15118)
0: all assays above

ABL1 (UniProt P00519)
3: Afatinib
0: all other assays above

EGFR_L861Q (UniProt P00533)
1: Defactinib
4: [4]
not listed: Afatinib (dimaleate) | Afatinib
0: all other assays above

SYK (UniProt P43405)
0: all assays above

GSK3A (UniProt P49840)
0: all assays above

ERN1 (UniProt O75460)
3: Afatinib
0: all other assays above

EGFR_L718V (UniProt P00533)
not listed: Afatinib (dimaleate) | Afatinib
0: all other assays above

EGFR_T790M (UniProt P00533)
not listed: Afatinib (dimaleate) | Afatinib
0: all other assays above

CSNK1A1 (UniProt P48729)
1: Defactinib
2: Regorafenib
0: all other assays above

EGFR (UniProt P00533)
1: Regorafenib
not listed: Afatinib (dimaleate) | Afatinib
0: all other assays above

YES1 (UniProt P07947)
0: all assays above

ZAP70 (UniProt P43403)
0: all assays above

CDK10 (UniProt Q15131)
5: Afatinib
0: all other assays above

PRKAA1 (UniProt Q13131)
0: all assays above

CDK6 (UniProt Q00534)
2: Afatinib
0: all other assays above

TEC (UniProt P42680)
0: all assays above

LIMK1 (UniProt P53667)
4: Afatinib | [3]
3: [1] | Regorafenib
2: CX-6258 (hydrochloride)
0: all other assays above

PDPK1 (UniProt O15530)
1: Afatinib
0: all other assays above

CDK2 (UniProt P24941)
0: all assays above

ARAF (UniProt P10398)
0: all assays above

FGFR2 (UniProt P21802)
2: Regorafenib | Defactinib
3: [3] | [4]
0: all other assays above

EGFR_G719S_T790M (UniProt P00533)
2: [4]
1: Defactinib
not listed: Afatinib (dimaleate) | Afatinib
0: all other assays above

EPHA2 (UniProt P29317)
2: Afatinib
0: all other assays above

JAK1 (UniProt P23458)
0: all assays above

DYRK2 (UniProt Q92630)
2: Regorafenib | Defactinib
3: Afatinib
1: [3]
0: all other assays above

RAF1 (UniProt P04049)
3: [4]
2: Afatinib | [3] | Regorafenib
0: all other assays above

EGFR_L858R (UniProt P00533)
2: Defactinib
not listed: Afatinib (dimaleate) | Afatinib
0: all other assays above

PTK2B (UniProt Q14289)
1: Afatinib
0: all other assays above
